± gives the standard deviation of the averaged measurements. In all, about 1,600 compounds were measured (“normalized growth (OD600, IQM-normalized) in LPM”: median about 1, lowest 2% from about 0.014 on). The list shows a part of the results.

The assay relates to Salmonella enterica serovar Typhimurium SL1344. The experiment in a line: normalized growth (OD600, IQM-normalized) in LPM (fraction of plate interquartile mean); higher = more bacterial growth (less inhibition). The note with it: LPM pH 5.8; 10 µM; 16 h.
The molecule `N=C(N)NCCN1CCCCCCC1` displayed a normalized growth of 1.02 ± 0.033.

In turn, `CC(=O)OCC(=O)[C@H]1CC[C@H]2[C@@H]3CCC4=CC(=O)CC[C@]4(C)[C@H]3CC[C@]12C` showed a normalized growth of 0.853 ± 0.017.

Regarding `CCCOc1ccc(C(=O)OCCN(CC)CC)cc1N`, the normalized growth turned out to be 0.995 ± 0.046.

In the case of `CCN(CC)CCOCCOC(=O)C(CC)(CC)c1ccccc1`, the normalized growth came to 1.08 ± 0.015.

As to `CC(=O)OCC(=O)[C@@]1(OC(C)=O)[C@@H](C)C[C@H]2[C@@H]3C[C@H](F)C4=CC(=O)C=C[C@]4(C)[C@@]3(F)[C@@H](O)C[C@@]21C`, the normalized growth was 1.01 ± 0.034.

As for `CC[C@@H](CO)NCCN[C@@H](CC)CO`, the normalized growth was 1.2 ± 0.13.

The molecule `C[C@]1(Cn2ccnn2)[C@H](C(=O)O)N2C(=O)C[C@H]2S1(=O)=O` yielded a normalized growth of 1.2 ± 0.038.

In the case of `Cc1cc(-c2ccc(/N=N/c3ccc4c(S(=O)(=O)O)cc(S(=O)(=O)O)c(N)c4c3O)c(C)c2)ccc1/N=N/c1ccc2c(S(=O)(=O)O)cc(S(=O)(=O)O)c(N)c2c1O`, the normalized growth came to 1.62 ± 0.034.

In turn, `CNC(=N)NCCC[C@H](N)C(=O)O` displayed a normalized growth of 1 ± 0.1.

Molecule `C=CCSCC1Nc2cc(Cl)c(S(N)(=O)=O)cc2S(=O)(=O)N1` (centres undefined) returned a normalized growth of 0.98 ± 0.015.

On to `CC(=O)N(CC(O)CN(C(C)=O)c1c(I)c(C(=O)NCC(O)CO)c(I)c(C(=O)NCC(O)CO)c1I)c1c(I)c(C(=O)NCC(O)CO)c(I)c(C(=O)NCC(O)CO)c1I` (centres undefined), for which the normalized growth stood at 1.05 ± 0.02.

Molecule `NC(=O)NS(=O)(=O)c1ccc(N)cc1` returned a normalized growth of 0.991 ± 0.017.

Molecule `COc1cc(/C=C/C(=O)N2CCCCCCC2)cc(OC)c1OC` had a normalized growth of 0.961 ± 0.025.

Consider `c1ccc(CN(CC2=NCCN2)c2ccccc2)cc1`, for which the normalized growth was found to be 1.01 ± 0.045.

As for `OCc1ccccc1O`, the normalized growth came to 1.05 ± 0.04.

Regarding `COc1c(N2CCNC(C)C2)c(F)cc2c(=O)c(C(=O)O)cn(C3CC3)c12` (centres undefined), the normalized growth amounted to 0.0158 ± 0.0074.

Take `O=C(c1ccccc1)c1ccc2n1CCC2C(=O)O` (centres undefined): the normalized growth turned out to be 0.952 ± 0.076.

`CN(C)CC(c1ccc(O)cc1)C1(O)CCCCC1` (centres undefined) yielded a normalized growth of 1.71 ± 0.17.

In turn, `NC(=O)[C@@H]1CCCN1C(=O)[C@H](Cc1c[nH]cn1)NC(=O)[C@@H]1CCC(=O)N1` yielded a normalized growth of 0.999 ± 0.024.

`CC(=O)Oc1cccc(C)c1` [meta-CRESYL ACETATE] came in with a normalized growth of 0.995 ± 0.048.

The molecule `CC(C)(O)c1ccccc1CC[C@@H](SCC1(CC(=O)O)CC1)c1cccc(/C=C/c2ccc3ccc(Cl)cc3n2)c1` came in with a normalized growth of 1 ± 0.023.

On to `CCN[C@@H]1C[C@H](N)[C@@H](O[C@H]2OC(CN)=CC[C@H]2N)[C@H](O)[C@H]1O[C@H]1OC[C@](C)(O)[C@H](NC)[C@H]1O`, for which the normalized growth was 1.07 ± 0.056.

For `FC(F)(F)COCC(F)(F)F`, the normalized growth worked out at 1.08 ± 0.036.

Turning to `CN1Cc2c(N)cccc2C(c2ccccc2)C1` (centres undefined), the normalized growth was found to be 1.01 ± 0.044.

As for `Nc1ccn([C@@H]2CS[C@H](CO)O2)c(=O)n1`, the normalized growth is 1.18 ± 0.095.

With `Cc1cc(N)c2ccccc2[n+]1CCCCCCCCCC[n+]1c(C)cc(N)c2ccccc21`, the normalized growth worked out at 1.07 ± 0.017.

As to `COc1ccccc1OCC(O)COC(N)=O` (centres undefined), the normalized growth amounted to 1.09 ± 0.097.

With `COC(=O)Nc1nc2cc([S+]([O-])c3ccccc3)ccc2[nH]1` (centres undefined), the normalized growth stood at 1.09 ± 0.022.

For `CCNC(=O)/C=C/c1cccc(Br)c1`, the normalized growth came to 1.08 ± 0.035.

`C=CCCCCCCCCC(=O)[O-].C=CCCCCCCCCC(=O)[O-].[Zn+2]` had a normalized growth of 1.15 ± 0.041.

For `CO/N=C(\C(=O)N[C@@H]1C(=O)N2C(C(=O)OC(C)OC(C)=O)=C(COC(N)=O)CS[C@H]12)c1ccco1` (some centres undefined), the normalized growth is 1.06 ± 0.24.

In the case of `NCCC[C@H](N)CC(=O)N[C@H]1CNC(=O)[C@H]([C@H]2C[C@H](O)NC(N)=N2)NC(=O)/C(=C/NC(N)=O)NC(=O)[C@H](CO)NC(=O)[C@H](CO)NC1=O`, the normalized growth was 0.97 ± 0.066.

Turning to `NC(CO)C(=O)NNCc1ccc(O)c(O)c1O` (centres undefined), the normalized growth stood at 0.816 ± 0.029.

As to `C[C@H]1COc2c(N3CCN(C)CC3)c(F)cc3c(=O)c(C(=O)O)cn1c23`, the normalized growth was found to be 0.00833 ± 0.00037.

With `CN(C)CCCN1c2ccccc2CCc2ccccc21`, the normalized growth worked out at 0.963 ± 0.051.

On to `Fc1ccc([C@@H]2CCNC[C@H]2COc2ccc3c(c2)OCO3)cc1`, for which the normalized growth is 0.869 ± 0.11.

`Nc1nc(O)c2ncn(CCC(CO)CO)c2n1` gave a normalized growth of 0.9465 ± 0.0074.

Regarding `CN(C/C=C/C#CC(C)(C)C)Cc1cccc2ccccc12`, the normalized growth amounted to 0.91 ± 0.018.

In turn, `C[N+](C)(C)CCO.[Cl-]` yielded a normalized growth of 1.12 ± 0.027.

`O=C(Oc1cccc2cccnc12)c1ccccc1` came in with a normalized growth of 0.993 ± 0.039.

For `CN1CCC(OC(c2ccccc2)c2ccccc2)CC1`, the normalized growth came to 0.994 ± 0.067.

Regarding `Cc1cc2nc3c(=O)[nH]c(=O)nc-3n(CC(O)C(O)C(O)COP(=O)(O)O)c2cc1C` (centres undefined), the normalized growth is 0.822 ± 0.056.

In turn, `O=C(O)CSCC(=O)NC1CCSC1=O` (centres undefined) registered a normalized growth of 1 ± 0.069.

Regarding `NCC[C@H](O)C(=O)N[C@@H]1C[C@H](N)[C@@H](O[C@H]2O[C@H](CN)[C@@H](O)[C@H](O)[C@H]2O)[C@H](O)[C@H]1O[C@H]1O[C@H](CO)[C@@H](O)[C@H](N)[C@H]1O`, the normalized growth was 0.966 ± 0.015.

`CC(C)C(=O)Nc1ccc([N+](=O)[O-])c(C(F)(F)F)c1` registered a normalized growth of 1.11 ± 0.082.

Regarding `CC(=O)Oc1cc2c(s1)CCN(C(C(=O)C1CC1)c1ccccc1F)C2` (centres undefined), the normalized growth stood at 1.08 ± 0.1.

With `Cn1cnc([N+](=O)[O-])c1Sc1ncnc2[nH]cnc12`, the normalized growth was found to be 0.987 ± 0.026.

For the molecule `OCCN1C[C@H](O)[C@@H](O)[C@H](O)[C@H]1CO`, the normalized growth was 0.993 ± 0.016.

`CC(=O)OCC[N+](C)(C)C`: the normalized growth came to 1.05 ± 0.023.

The record behind these values is the supplement of paper PMC6331611.
